Target: GAD-OsMYBS2 (Oryza sativa) (UniProt B8BI93)
Assay: one hybrid
Conditions: LacZ increased; protein in cells; protein details: GAL4 activation domain fusion, yeast

Amino acid sequences for entries named in this document (tags omitted). Chains listed by the source or under a name are the forms on record and can include a tag or linker.
UniProt B8BI93, other isoform, or with tags, fused parts or gaps: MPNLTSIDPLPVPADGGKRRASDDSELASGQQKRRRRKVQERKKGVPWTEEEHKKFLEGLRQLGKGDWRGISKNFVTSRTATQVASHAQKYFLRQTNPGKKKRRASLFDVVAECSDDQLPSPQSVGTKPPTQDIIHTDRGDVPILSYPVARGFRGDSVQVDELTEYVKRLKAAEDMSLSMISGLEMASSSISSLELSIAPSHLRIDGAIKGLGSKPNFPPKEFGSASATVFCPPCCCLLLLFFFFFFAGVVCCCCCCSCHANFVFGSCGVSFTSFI

Sequence: AATTCTATCCATATCCATATCCATATCCATATCCATATCCAC / GTGGATATGGATATGGATATGGATATGGATATGGATAG [6xTATCCA]
- activity on this sequence: active

Source: US7291768
